Measurements: PubChem BioAssay AID540276 (National Center for Advancing Translational Sciences (NCATS), 2011)
Among all 300,000 compounds or so, about 5,400 (1.8%) were called active. This list was built around the results that the source calls inconclusive (neither active nor inactive); the mix of calls is not that of the screen. The call rests on the fitted dose curve; tested in HEK293 cells. Where the call is inconclusive, the potency comes from a doubtful curve fit.

Test: qHTS for inhibitors of binding or entry into cells for Marburg Virus
Conditions: Marburg virus pseudotyped entry inhibition, cell reporter; activity change, negative = inhibition: at 37.8 µM (top of the series) unless noted
On the % scale 0 is the no-effect control and ±100 the full control effect; potency means the concentration at half of the fitted maximal effect.

Q: With `Nc1c(Cl)ncnc1N/N=C/c1cccnc1` as the molecule, how does the “activity change, negative = inhibition” value read?
A: inactive: 22.3% [at 14.2 µM]

Q: With `Cc1ccc(C)c(NC(=O)CN(C)C(=O)COc2ncnc3sccc23)c1` as the molecule, how does the Potency read?
A: inconclusive: 8.91 µM [activator, partial curve]

Q: Which Potency does the source give for `O=C(NN=C1CCCC1)C1COc2ccccc2O1` (stereo unspecified) here?
A: inconclusive: 7.08 µM [inhibitor, full curve, poor fit]

Q: With `O=C(NCc1ccccc1)c1nccnc1CO` as the molecule, how does the “activity change, negative = inhibition” value read?
A: inactive: 10.2%

Q: For `Cc1[nH]c(=O)[nH]c(=O)c1S(=O)(=O)N1CCOCC1`, which “activity change, negative = inhibition” value is on record?
A: inactive: -7.04%

Q: For `CCn1cc(C(=O)N[C@@H](CCSC)C(=O)NCCOC)c(=O)c2cc3c(cc21)OCO3`, which “activity change, negative = inhibition” value is on record?
A: inactive: 29.4% [at 46.1 µM]

Q: Which “activity change, negative = inhibition” value does the source give for `C#CCOCCOCCOCCNc1nc(N2CCN(C(=O)[C@H]([C@@H](C)O)n3cc(CCCCN)nn3)CC2)nc(N2CCN(C(=O)[C@H](C)n3cc(CCCN=C(N)N)nn3)CC2)n1` here?
A: inactive: -15.6%

Q: Which Potency does the source give for `CCN(CC)C(=S)SCC(=O)Nc1ccc(F)cc1` here?
A: inconclusive: 11.2 µM [inhibitor, partial curve, poor fit]

Q: Which Potency does the source give for `CCC(Oc1ccccc1OC)C(=O)Nc1ccc2c(c1)n(C)c(=O)n2C` (stereo unspecified) here?
A: inconclusive: 6.31 µM [inhibitor, partial curve, poor fit]

Q: For `COc1cccc2[nH]c3c(N4CCCCC4)ncnc3c12`, which “activity change, negative = inhibition” value is on record?
A: inactive: 9.51%

Q: For `CCOc1ccc(Cn2c(-c3ccc(OCC)c(OC)c3)nc3ccccc32)cc1OC`, which Potency is on record?
A: inconclusive: 10 µM [activator, partial curve, poor fit]

Q: With `COc1ccc(N(CCCN2C(=O)c3cccc4cccc(c34)C2=O)C(=O)c2ccncc2)cc1` as the molecule, how does the Potency read?
A: inconclusive: 35.5 µM [inhibitor, single point]

Q: For `Cc1ccc2nc(-c3ccccn3)oc2c1`, which Potency is on record?
A: inconclusive: 7.08 µM [inhibitor, partial curve, poor fit]

Q: Which Potency does the source give for `O=C(N/N=C/c1ccccn1)c1cccc([N+](=O)[O-])c1` here?
A: inconclusive: 11.2 µM [inhibitor, partial curve, poor fit]

Q: Which “activity change, negative = inhibition” value does the source give for `COc1ccc(-c2noc(-c3ccccc3-c3ccccc3)n2)cc1OC` here?
A: inactive: -8.02%

Q: With `Cc1cccc(NC(=O)c2cc(-c3ccc4c(c3)OCCO4)on2)c1` as the molecule, how does the Potency read?
A: inconclusive: 15.8 µM [inhibitor, single point]

Q: Which “activity change, negative = inhibition” value does the source give for `Cc1cc(NCc2ccccc2Cl)n2cnnc2n1` here?
A: inactive: -2.82% [at 46.1 µM]

Q: Which “activity change, negative = inhibition” value does the source give for `CN1c2ccccc2-c2nc3ccccc3n2C1c1ccccn1` (stereo unspecified) here?
A: inactive: -13.6%

Q: For `CC1CCN(C(=O)c2ccc(COc3ccccc3Cl)o2)CC1`, which “activity change, negative = inhibition” value is on record?
A: inactive: 9.12%

Q: Which Potency does the source give for `CC1(O)C(=O)C=C2C=C(CCCCOCc3ccccc3)OC=C2C1=O` (stereo unspecified) here?
A: inconclusive: 2.66 µM [activator, single point]

Q: For `O=C(CC1SCCNC1=O)Nc1ccc(F)c(Cl)c1` (stereo unspecified), which “activity change, negative = inhibition” value is on record?
A: inactive: 5.14%

Q: With `CC(=O)N1CCC2(CC1)NC(=O)N(c1ccccc1)N2` as the molecule, how does the Potency read?
A: inconclusive: 7.94 µM [inhibitor, partial curve, poor fit]

Q: With `COc1ccc(S(=O)(=O)N2CCN(c3ccc(Cl)c(Cl)c3)CC2)c2ccccc12` as the molecule, how does the Potency read?
A: inconclusive: 35.5 µM [inhibitor, single point]

Q: With `CCOC(=O)C1C(c2cccs2)NC(=O)N(C)C1(O)C(F)(F)F` (stereo unspecified) as the molecule, how does the “activity change, negative = inhibition” value read?
A: inactive: 7.46%

Q: With `Cc1ccc(S(=O)(=O)N2CCN(Cc3ccccc3)CC2)cc1` as the molecule, how does the “activity change, negative = inhibition” value read?
A: inactive: 1.8%

Q: Which Potency does the source give for `Cc1cc(Cl)ccc1OCC(=O)N1CCCN(C(=O)COc2ccc(Cl)cc2C)CC1` here?
A: active: 14.6 µM

Q: With `CCN(CC)CCN(Cc1cc2ccc(C)cc2[nH]c1=O)C(=O)NC1CCCCC1` as the molecule, how does the Potency read?
A: inconclusive: 11.2 µM [inhibitor, partial curve, poor fit]

Q: With `COc1ccc(N2CCN(C(=O)c3ccc(NS(=O)(=O)c4ccccc4)cc3)CC2)cc1` as the molecule, how does the Potency read?
A: inconclusive: 5.62 µM [inhibitor, single point]

Q: Which Potency does the source give for `COC(=O)c1cc(OC)c(OC)cc1NCC(=O)Nc1ccc(OC)c(OC)c1` here?
A: inconclusive: 35.5 µM [inhibitor, partial curve, poor fit]

Q: Which Potency does the source give for `COc1ccccc1CNC(=O)c1cccc(N(C)C)c1` here?
A: inconclusive: 2.82 µM [activator, partial curve, poor fit]

Q: With `COCCN(C(=O)CSc1nnc(-c2ccc(C)c(C)c2)o1)c1c(N)n(CC(C)C)c(=O)[nH]c1=O` as the molecule, how does the “activity change, negative = inhibition” value read?
A: inactive: -5.25% [at 46.1 µM]

Q: With `Cc1cccc(C(=O)Nc2ccccc2C(=O)OCC(=O)Nc2ccc(C#N)cc2)c1` as the molecule, how does the Potency read?
A: inconclusive: 2.51 µM [activator, full curve, poor fit]

Q: With `N=c1nc(SCCC(=O)O)ss1` as the molecule, how does the Potency read?
A: inconclusive: 10 µM [inhibitor, partial curve]

Q: For `O=C(CSc1ncc(C(F)(F)F)cc1Cl)N1CCN(S(=O)(=O)c2ccc(Cl)cc2)CC1`, which Potency is on record?
A: inconclusive: 29.1 µM [inhibitor, single point]

Q: With `COCc1[nH]nc2c1C1(CCC3(CC1)OCCO3)C(C#N)=C(N)O2` as the molecule, how does the “activity change, negative = inhibition” value read?
A: inactive: -5.92%

Q: For `Cc1ccc2c(c1)C=CC(C#N)N2C(=O)c1ccccc1` (stereo unspecified), which Potency is on record?
A: inconclusive: 0.562 µM [inhibitor, full curve, poor fit]
